Results of single-concentration screens

Measurements from “University of Dundee, Small-Polar-MMV Screening Library” (2021), ChEMBL document CHEMBL3988442.

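Assay of Toxoplasma gondii numbers, read through their beta-galactosidase reporter with a colour substrate. Concentration: 10 µM. Higher reads as fewer parasites (inferred from which compounds were picked for retests). About 67,000 compounds were tested under these conditions; 0.38% (about 260) showed 50% or more at least once.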

Each number is a percent effect as filed.
How 0% and 100% were set is not recorded. Most values in the screen are low, and negative values occur.
The compounds are a random part of those screened.

| structure | Percent Effect |
|---|---|
| `CCCn1cc(CN2CCOCC2c2[nH]ncc2C)cn1` (centres unmarked) | -0.4316 |
| `O=C(NCc1nc2ccccc2[nH]1)c1cc2n(n1)CCCO2` | 13.9 |
| `CNc1nc(CNC(=O)Nc2ccc([S+](C)[O-])c(F)c2)cs1` (centres unmarked) | -1.472 |
| `COCCNc1cc(C(=O)N2CCOCC2)nc(C)n1` | 22.79 |
| `Cc1ncccc1-c1cc2cccnc2n1CCCNC(=O)C1CC1.Cl` | 1.412 |
| `CCc1nc(C)c(C(=O)N(C)Cc2cnn(-c3cccc(OC)c3)c2)s1` | 8.428 |
| `O=C(CCN1CCCC1c1cccc(F)c1)N1CCc2sccc2C1` (centres unmarked) | 24.05 |
| `Cc1ccsc1CNCC1CCCN1c1cccnn1` (centres unmarked) | 21.68 |
| `Cc1ccc(CN2CCc3onc(C(=O)Nc4cccnc4)c3C2)o1.O=C(O)C(F)(F)F.O=C(O)C(F)(F)F` | 8.026 |
| `Cc1cc(N2CCC(C(=O)NC3CC3)CC2)nc(-c2ccncc2)n1` | 11.32 |
| `CC(=O)Nc1ccc(S(=O)(=O)NC(=O)CCC2CCCO2)cc1` (centres unmarked) | 5.227 |
| `Cc1nc2c(Nc3ccc(C#N)cc3)nc(N)nc2n1C` | 18.64 |
| `O=S(=O)(NCCNc1cc(-n2cccn2)ncn1)c1cccs1` | -16.99 |
| `[H][C@]12C[C@H](NC(=O)c3ccn(C)n3)[C@@]1([H])CN(S(=O)(=O)c1ccc(C)cc1)C2` | 19.28 |
| `CC(NCCN1CCC(N(C)C)CC1)c1ccc(Cl)s1` (centres unmarked) | -1.536 |
| `Cc1cc(C(=O)NCc2ccco2)nn1C` | 56.09 |
| `O=C(NCc1cccs1)NCC(O)c1ccoc1` (centres unmarked) | 16.26 |
| `Cc1cc(C)cc(OCCN(C)C(=O)NC(C)c2nncn2C)c1` (centres unmarked) | 2.624 |
| `CCOc1ccc(Cl)c(C(=O)N(C)C)n1` | -16.77 |
| `COc1ccc(CCC2CCCN(C(=O)c3cnc(N)nc3C)C2)cc1` (centres unmarked) | -22.3 |
| `COc1cc(N2CCOC(c3ccc(F)cc3)C2)ncn1` (centres unmarked) | 10.8 |
| `CC(C)Oc1ccc(CNC(=O)CCN2C(=O)CCC2=O)cc1F` | 18.87 |
| `O=C(NC1CC1)N1CCCC2(CCNC2=O)C1` (centres unmarked) | -16.72 |
| `COc1ccc(-n2cccn2)c(CN2CCC3(CCCN(C)C3=O)C2)c1` (centres unmarked) | -0.8046 |
| `CCc1nc(C)c(CN2CCN(c3ncnc4c(C)csc34)CC2)[nH]1` | 5.085 |
| `O=S(=O)(C1CC1)N1CCC2(CC1)COC(COc1ccccn1)C2` (centres unmarked) | 2.268 |
| `O=C(NCCN1CCOCC1)NCc1ccccc1-n1cccn1` | 11.32 |
| `COc1ccc(-n2cc(CCO)cn2)cc1C(N)=O` | -7.092 |
| `NC(=O)NC(=O)CCn1ccc(-c2ccccc2)n1` | 1.831 |
| `O=C(O)C(F)(F)F.[H][C@@]12CCN(Cc3cccc(C#N)c3)[C@@]1([H])CC(=O)N2CCOC` | -0.3882 |
| `O=C(O)c1coc(COc2cccc(F)c2)n1` | -0.05316 |
| `Cc1noc(C)c1CNC(=O)N1CCC(Cc2cnn(C)c2)C1` (centres unmarked) | -6.55 |
| `CCCN(CCC)C(=O)c1cc(CN2CCC(O)CC2)on1` | -2.017 |
| `CN(C)CC(=O)N1CCCC2(CCC(=O)N(CCc3c[nH]cn3)C2)C1` (centres unmarked) | 13.37 |
| `CN1CCCCCC1C(=O)NCCCn1ncc2ccccc21` (centres unmarked) | -8.865 |
| `CCc1nncn1CCNC(=O)Nc1ccc(OC)c(C)c1` | 1.681 |
| `O=C(O)C(F)(F)F.O=C(c1ccc[nH]1)N1CCc2onc(COc3cccnc3)c2C1` | -26.34 |
| `Cc1cnn(CC(C)NCC(=O)Nc2ccc(Cl)cn2)c1` (centres unmarked) | -20.25 |
| `[H][C@]12CC(Cn3cccn3)N(C)[C@@]1([H])CCN(Cc1nccs1)C2` (some centres unmarked) | 7.773 |
| `[H][C@@]12CN(C(=O)c3ccncc3)C[C@]1([H])OCCN2Cc1csc(C)n1` | -9.859 |
| `Cc1cnn(CC2CN(CC(=O)Nc3cccnc3)CCO2)c1` (centres unmarked) | -31.12 |
| `CC(C)C(NC(=O)c1ccccc1F)C(=O)N1CCC2(CC1)OCCO2` (centres unmarked) | 2.967 |
| `[H][C@@]12CS(=O)(=O)C[C@]1([H])N(C(=O)c1csc(C)n1)CCN2c1ncccn1` | 0.4142 |
| `CC(C)OCCNC1(c2ccc(Cl)cc2)CCOCC1` | 5.774 |
| `COc1cc2c(cc1CNCc1cccnc1-n1cccn1)OC(C)C2.Cl` (centres unmarked) | -19.97 |
| `COc1cc(C#N)ccc1OC12CCCN(CC1)C2` (centres unmarked) | -5.607 |
| `N#Cc1ccc(NCC(=O)Nc2ncn(Cc3cccnc3)n2)cc1` | -10.16 |
| `Cc1nc(N(C)C)ncc1C(=O)NCCc1csc(-c2ccncc2)n1` | 3.59 |
| `CC1(CCC(=O)N2CCC(n3cc(C4(O)CCCC4)nn3)CC2)CC1` | -3.086 |
| `CC(C)Cc1cc(CNC(=O)C2CCCN(Cc3ccco3)C2)no1` (centres unmarked) | -11.51 |
| `Cc1nc(C(C)C)ncc1C(=O)N1CCCC(N2CCCC2)C1` (centres unmarked) | 20 |
| `O=C(Cn1cc(Cl)cn1)NCCN1CCC(O)(c2ccc(F)cc2)CC1` | 25.55 |
| `Cc1nnsc1C(=O)NCCNS(=O)(=O)c1cccs1` | 7.596 |
| `CCC1COCCN1C(=O)CNC(=O)c1ccoc1C` (centres unmarked) | 5.982 |
| `CCOCc1ccc(NC(=O)N2CCOC3(CCC3)C2)cc1` | 2.639 |
| `CO[C@H]1CCN(S(=O)(=O)c2cn(C)cn2)[C@H]1Cc1cnn(C)c1.O=C(O)C(F)(F)F` | -8.226 |
| `COc1ccc(CC(=O)N2CCCC(c3nncn3C)C2)cc1` (centres unmarked) | -0.4632 |
| `CNS(=O)(=O)c1ccsc1C(=O)OC` | 1.479 |
| `CN1CCN(Cc2cn3c(n2)CN(Cc2ccncc2)CC3)CC1` | -13.6 |
| `COc1cccc(N2CCN(C(=O)CN(C)c3cnccn3)CC2)c1` | -7.818 |
| `Cc1nccn1CCN1C(=O)CC2(CCCC2)CC1=O` | 19.08 |
| `Cc1nc(-c2ccc(F)cc2)cc(C2CCNCC2)n1` | 1.268 |
| `Cc1ccc(N2CCC(c3nccn3Cc3cscn3)CC2)nn1` | 7.446 |
| `CC(=O)NC1CCN(c2ccc(C#N)cc2C(F)(F)F)CC1` | -4.931 |
| `[H][C@]12CC[C@]([H])(CN(C(=O)c3ccccc3)C1)N(C(=O)OC(C)C)C2` | 10.4 |
| `CCOc1cccc(C(=O)Nc2ccncc2)c1` | 26.05 |
| `CC(C)CNc1nc2c(cc1C(=O)NCC1CC1)CCNCC2` | 4.039 |
| `[H][C@]12CCN(C(=O)c3cc(C)oc3C)C[C@@]1([H])OCCN(c1ncccn1)C2` | -0.269 |
| `Cc1cc(-c2cnc(N3CCN(C)CC3)nc2-c2ccc(C)s2)on1` | 0.1922 |
| `CCc1nnsc1C(=O)NCC1CN(CC(C)C)CCO1` (centres unmarked) | -4.777 |
| `Cc1oc(C(=O)O)cc1S(=O)(=O)Nc1ccc(Br)cc1Cl` | -5.602 |
| `Cc1ccccc1-n1ncc2c(=O)n(CCN3CCCCC3)cnc21` | 29.85 |
| `O=C(Cc1ccccc1Cl)Nc1cnn(C2CCOC2)c1` (centres unmarked) | 8.6 |
| `CCN1CCN(c2ccc(C(=O)NC(C)CCOC)cc2)CC1` (centres unmarked) | 1.747 |
| `CN(Cc1cc(Br)cn1C)C(=O)Cc1cccnc1` | 14.04 |
| `COc1ccnc(CN2CC(=O)N(c3ccc(C)cc3)CC2C)c1OC` (centres unmarked) | -0.6882 |
| `CN(C)CC1(O)CCCN(C(=O)Cn2nc3ccccc3n2)CC1` (centres unmarked) | -3.006 |
| `CCSc1ccc(C(C)NC(=O)CCS(C)(=O)=O)cc1` (centres unmarked) | -4.322 |
| `Cc1cc2c(=O)n3c(nc2s1)CCN(C(=O)c1ccnn1C)CC3` | -37.89 |
| `O=C(CN1CCC(c2ccnn2CCO)CC1)NCC1CCCCC1` | -4.354 |
| `COCC(=O)N1CCN(S(=O)(=O)c2ccccc2)[C@@H](C(=O)OC)C1` | -4.916 |
| `Cc1ccc2c(c1)[C@@H](CC(=O)N1CCOCC1)CCO2` | 1.391 |
| `Cc1ccc(OCC(=O)N(C)Cc2ccc(F)cc2)cn1` | -2.62 |